The text below walks through data of ChEMBL document CHEMBL4837260, “Structure-Guided Design of a Small-Molecule Activator of Sirtuin-3 that Modulates Autophagy in Triple Negative Breast Cancer” (J Med Chem, 2021).

Some results are limits rather than exact numbers.

Common to all, as to type: functional, cell-based
In one assay the test system is MCF7. Kind of assay: Antiproliferative activity against human MCF7 cells measured after 24 hrs by MTT assay. Conditions: MCF7, 24 h. For orientation: Formazan colour is commonly taken as a measure of viable cells.
Another assay has as its system HL-60. Kind of assay: Antiproliferative activity against human HL-60 cells measured after 24 hrs by MTT assay. The following applies: HL-60, 24 h.
The next assay has as its system U-937. Kind of assay: Antiproliferative activity against human U-937 cells measured after 24 hrs by MTT assay. The following applies: U-937, 24 h.

Turning to `CCCCc1oc2ccccc2c1C(=O)c1cc(I)c(OCCN(CC)CC)c(I)c1` [AMIODARONE], the IC50 (commonly the midpoint of a concentration-inhibition curve) in the assay on MCF7 is above 50 µM; with HL-60 it was 5.27 µM; in the assay on U-937, 9.31 µM.
